From patent US7230011B2, “Benzenesulfonic acid indol-5-yl esters as antagonists of the 5ht6 receptor” (Eli Lilly and Company, priority 2002, dated 2007)

System: Male Sprague-Dawley rats
Details: s.c. immediately after the sampling phase, three-hour delay

CN1[C@@H]2C[C@@H](OC(=O)[C@H](CO)c3ccccc3)C[C@H]1[C@@H]1O[C@@H]12 [Scopolamine, scopolamine]
retention: disrupted retention
